PubChem BioAssay AID743454 | Peter MacCallum Cancer Centre – 2014
Purpose: 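Knock-downs lowering viability or raising caspase 3/7 activity in vorinostat-treated resistant cells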 (primary screen). System: human HCT116-VR colon cancer cells, selected for vorinostat resistance. Reagents: siRNA pool against human genes, 40 nM siRNA pool. Time to read-out: vorinostat for 24 h, read-out about 72 h after transfection. Challenge: vorinostat at 2.5 µM final. Detection: 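Cell viability by CellTiter-Fluor and caspase 3/7 activity by luminescence, each scaled to mock wells per plate, duplicates averaged, then robust z-scored over all plates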. Reading the numbers: viability robust z-score: higher = more viable cells than screen typical; caspase robust z-score: higher = more caspase 3/7 activity than screen typical. Rule for the call: 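Hits are knock-downs in viability class RV1/RV2 or caspase class CA1/CA2, excluding ones that killed cells in the no-drug cell-count arm; hits then retested with single siRNAs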.
Here is a random part of about 18,000 deposited reagents. Of all reagents, 450 (2.5%) were called active. 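Single biological run; no consistent viability z cut-off exists, so the class columns, not z-scores, define the calls.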 Unmarked entries are inactive. No sequences are given here.

| gene | PubChem SID | viability hit class | caspase hit class | viability robust z-score | caspase robust z-score |
| --- | --- | --- | --- | --- | --- |
| TTC16 (tetratricopeptide repeat domain 16) | SID134320996 | no change | no change | 1.06 | -0.04 |
| PTPRU (protein tyrosine phosphatase receptor type U) | SID152150387 | no change | no change | -0.19 | 0.16 |
| NSUN5P2 (NSUN5 pseudogene 2) | SID152154988 | no change | no change | -0.84 | 0.66 |
| KLHL7 (kelch like family member 7) | SID134319610 | no change | no change | 0.12 | 0.32 |
| SERPINB10 (serpin family B member 10) | SID134323681 | no change | no change | -0.45 | -0.65 |
| FAM153B (family with sequence similarity 153 member B) | SID135625431 | no change | no change | 0.17 | -0.54 |
| CENPE (centromere protein E) | SID135620645 | no change | no change | -1.5 | 1.72 |
| UBXN4 (UBX domain protein 4) | SID135622686 | no change | no change | 0.3 | -0.24 |
| SACK1D (scaffolding CK1 anchoring protein D) | SID152153527 | no change | no change | 0.1 | 0.42 |
| ZNF80 (zinc finger protein 80) | SID135623760 | no change | no change | 0.2 | -0.16 |
| OR5H6 (olfactory receptor family 5 subfamily H member 6) | SID134329923 | no change | no change | 1.32 | -0.56 |
| TMEM106A (transmembrane protein 106A) | SID134320381 | no change | no change | -0.52 | -0.8 |
| CSF3 (colony stimulating factor 3) | SID134312804 | no change | no change | -1.25 | -1.04 |
| PCBP4 (poly(rC) binding protein 4) | SID152153350 | no change | no change | 0.94 | -0.55 |
| DENND2D (DENN domain containing 2D) | SID134320567 | no change | no change | 0.64 | 0.53 |
| B2M (beta-2-microglobulin) | SID134310411 | no change | no change | 0.9 | -0.47 |
| MARS1 (methionyl-tRNA synthetase 1) | SID134311789 | no change | no change | -0.32 | 1.33 |
| PTPRN (protein tyrosine phosphatase receptor type N) | SID134314074 | no change | no change | -0.76 | 0.77 |
| CLPTM1 (CLPTM1 regulator of GABA type A receptor forward trafficking) | SID152151861 | no change | no change | -0.27 | -0.24 |
| CXCR1 (C-X-C motif chemokine receptor 1) | SID135621040 | no change | no change | -1.38 | -0.86 |
| NR1I3 (nuclear receptor subfamily 1 group I member 3) | SID135620671 | no change | no change | 0.2 | -0.36 |
| FAT2 (FAT atypical cadherin 2) | SID134315620 | no change | no change | 0.45 | 0.06 |
| CRTC1 (CREB regulated transcription coactivator 1) | SID152149196 | no change | no change | -1.38 | 2.31 |

2 entries from above, showing only “caspase robust z-score”.
DENND2D (DENN domain containing 2D) [SID134320567]	0.53
B2M (beta-2-microglobulin) [SID134310411]	-0.47
